PubChem BioAssay AID743454 – Peter MacCallum Cancer Centre – 2014
This is a random part of about 18,000 reagents tested. Over the whole deposit, 450 (2.5%) were called active. 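Single biological run; no consistent viability z cut-off exists, so the class columns, not z-scores, define the calls.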

- Test: 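Knock-downs lowering viability or raising caspase 3/7 activity in vorinostat-treated resistant cells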 (primary screen)
- Cell system: human HCT116-VR colon cancer cells, selected for vorinostat resistance
- Reagents: siRNA pool against human genes, 40 nM siRNA pool
- Duration: vorinostat for 24 h, read-out about 72 h after transfection
- Challenge: vorinostat at 2.5 µM final
- Detection: 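Cell viability by CellTiter-Fluor and caspase 3/7 activity by luminescence, each scaled to mock wells per plate, duplicates averaged, then robust z-scored over all plates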
- Direction: viability robust z-score: higher = more viable cells than screen typical; caspase robust z-score: higher = more caspase 3/7 activity than screen typical
- Active means: 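a knock-down is a hit when classed RV1 or RV2 for lowered viability, or CA1 or CA2 for caspase activation; those lethal without drug were dropped; hits were retested singly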

target | viability hit class | caspase hit class | viability robust z-score | caspase robust z-score | activity call
POU2F2 (POU class 2 homeobox 2) | no change | no change | -0.99 | 0.17 | inactive
EFCAB13 (EF-hand calcium binding domain 13) | no change | no change | 0.66 | -0.14 | inactive
WDR59 (WD repeat domain 59) | no change | no change | -0.45 | 2.12 | inactive
GPD2 (glycerol-3-phosphate dehydrogenase 2) | no change | no change | 0.3 | 1.48 | inactive
TYRP1 (tyrosinase related protein 1) | no change | no change | 1.3 | 0.12 | inactive
KLHL35 (kelch like family member 35) | no change | no change | -2.52 | -0.62 | inactive
STOM (stomatin) | no change | no change | -1.14 | -0.58 | inactive
AK2 (adenylate kinase 2) | no change | no change | -1.52 | 2.13 | inactive
DHX9 (DExH-box helicase 9) | no change | no change | 0.8 | -1.16 | inactive
TTLL9 (tubulin tyrosine ligase like 9) | no change | no change | 0.53 | -0.62 | inactive
INPP5F (inositol polyphosphate-5-phosphatase F) | no change | no change | -0.14 | -0.33 | inactive
SLC25A52 | no change | no change | -0.84 | 1.26 | inactive
PRDM16 (PR/SET domain 16) | no change | no change | 1.18 | -0.71 | inactive
TNNT1 (troponin T1, slow skeletal type) | no change | no change | -0.25 | -0.92 | inactive
PLEKHM3 (pleckstrin homology domain containing M3) | no change | no change | 0.85 | -0.75 | inactive
ZNF382 (zinc finger protein 382) | no change | no change | -1.61 | 1.55 | inactive
FKBP15 (FKBP prolyl isomerase family member 15) | no change | no change | -0.16 | 0.86 | inactive
PRMT2 (protein arginine methyltransferase 2) | no change | no change | 0.64 | 0.78 | inactive
BIRC2 (baculoviral IAP repeat containing 2) | no change | no change | -0.58 | 1.96 | inactive
KCTD5 (potassium channel tetramerization domain containing 5) | no change | no change | -0.85 | 0.86 | inactive
LMTK3 (lemur tail kinase 3) | no change | CA2 (caspase activation) | -1.35 | 3.68 | active
RARB (retinoic acid receptor beta) | no change | no change | 0.84 | 3.86 | inactive
OR2D2 (olfactory receptor family 2 subfamily D member 2) | no change | no change | 0.2 | 0.54 | inactive
NEK7 (NIMA related kinase 7) | no change | CA2 (caspase activation) | -2.43 | 6.13 | active
XYLT2 (xylosyltransferase 2) | no change | no change | 0.7 | -0.68 | inactive
APLN (apelin) | no change | no change | -1.8 | -0.46 | inactive
SAP30BP (SAP30 binding protein) | no change | no change | -1.6 | -0.57 | inactive
AP4M1 (adaptor related protein complex 4 subunit mu 1) | no change | no change | 0.88 | -0.92 | inactive
OGFOD3 | no change | no change | 0.08 | -0.49 | inactive
LGALS1 (galectin 1) | no change | no change | -1.03 | -0.45 | inactive
SGMS2 (sphingomyelin synthase 2) | no change | no change | 1.19 | 0.17 | inactive
FBXO15 (F-box protein 15) | no change | no change | -0.38 | 2.67 | inactive
SEC31A (SEC31 homolog A, COPII component) | no change | no change | 1.46 | -0.42 | inactive
PDE2A (phosphodiesterase 2A) | no change | no change | 0.7 | -0.92 | inactive
DEPTOR (DEP domain containing MTOR interacting protein) | no change | no change | 0.29 | -1.27 | inactive
LRIG1 (leucine rich repeats and immunoglobulin like domains 1) | no change | no change | -0.8 | 2.07 | inactive
TLCD3B (TLC domain containing 3B) | no change | no change | -0.9 | 3.13 | inactive
ITGB3 (integrin subunit beta 3) | no change | no change | -1.22 | 2.43 | inactive
SLC11A2 | no change | no change | 0.62 | 1.84 | inactive
CMTM8 (CKLF like MARVEL transmembrane domain containing 8) | no change | no change | 0.54 | -0.37 | inactive
CDC16 (cell division cycle 16) | no change | no change | -0.14 | 0.1 | inactive
UGT8 (UDP glycosyltransferase 8) | no change | no change | 1.52 | 0.11 | inactive
ACSBG2 (acyl-CoA synthetase bubblegum family member 2) | no change | no change | 0.94 | 0 | inactive
DQX1 (DEAQ-box RNA dependent ATPase 1) | no change | no change | 0.42 | 0.29 | inactive
ENTPD6 (ectonucleoside triphosphate diphosphohydrolase 6) | no change | no change | 0.66 | -0.78 | inactive
CCDC92 (coiled-coil domain containing 92) | no change | no change | -0.62 | -0.18 | inactive
COG6 (component of oligomeric golgi complex 6) | no change | no change | 1.07 | -1.06 | inactive
PLA2G6 (phospholipase A2 group VI) | no change | no change | 0.02 | 1.07 | inactive
FRMD4A (FERM domain containing 4A) | no change | no change | 0.32 | -1.43 | inactive
PSMD5 (proteasome 26S subunit, non-ATPase 5) | no change | no change | 0.64 | -0.8 | inactive
RBM17 (RNA binding motif protein 17) | no change | no change | -2.27 | 2.5 | inactive
ASTN2 (astrotactin 2) | no change | no change | -1.28 | -0.98 | inactive
GK (glycerol kinase) | no change | no change | -0.3 | -0.82 | inactive
MGP (matrix Gla protein) | no change | no change | -0.84 | -0.21 | inactive
CHRNA6 (cholinergic receptor nicotinic alpha 6 subunit) | no change | no change | 0 | -1.03 | inactive
GATD3 (glutamine amidotransferase class 1 domain containing 3) | no change | no change | 0.08 | 0.46 | inactive
TMEM255B (transmembrane protein 255B) | no change | no change | -1.72 | 2.66 | inactive
PCGF6 (polycomb group ring finger 6) | RV2 (reduced viability) | CA2 (caspase activation) | -4.14 | 9.66 | active
RSPH14 (radial spoke head 14 homolog) | no change | no change | 0.15 | -0.24 | inactive
SELP (selectin P) | no change | no change | -0.84 | 0.55 | inactive
RNF19A (ring finger protein 19A, RBR E3 ubiquitin protein ligase) | no change | no change | -0.22 | -0.82 | inactive
RRBP1 (ribosome binding protein 1) | no change | no change | 0.68 | -1.11 | inactive
GARNL3 (GTPase activating Rap/RanGAP domain like 3) | no change | no change | -0.63 | -0.94 | inactive
PRR14 (proline rich 14) | no change | no change | -0.35 | -0.48 | inactive
AGT (angiotensinogen) | no change | no change | -0.33 | 0.3 | inactive
RXFP4 (relaxin family peptide/INSL5 receptor 4) | no change | no change | 0.34 | -0.67 | inactive
VSIR (V-set immunoregulatory receptor) | no change | no change | -1.31 | -0.15 | inactive
PARP9 (poly(ADP-ribose) polymerase family member 9) | no change | no change | -0.29 | -0.91 | inactive
TDRD5 (tudor domain containing 5) | no change | no change | 0.8 | 0.98 | inactive
SLC4A3 | no change | no change | 0.99 | 0.39 | inactive
NAGK (N-acetylglucosamine kinase) | no change | no change | -1.77 | 0.68 | inactive
TRMT6 (tRNA methyltransferase 6 non-catalytic subunit) | no change | no change | 0.05 | 1.67 | inactive
KCNE1 | no change | CA2 (caspase activation) | -1.01 | 6.18 | active

Part of the list above in another layout.
{"target":"ITGB3 (integrin subunit beta 3)","viability hit class":"no change","caspase hit class":"no change","viability robust z-score":-1.22,"caspase robust z-score":2.43,"activity call":"inactive"}
{"target":"SLC11A2","viability hit class":"no change","caspase hit class":"no change","viability robust z-score":0.62,"caspase robust z-score":1.84,"activity call":"inactive"}
{"target":"CMTM8 (CKLF like MARVEL transmembrane domain containing 8)","viability hit class":"no change","caspase hit class":"no change","viability robust z-score":0.54,"caspase robust z-score":-0.37,"activity call":"inactive"}
{"target":"CDC16 (cell division cycle 16)","viability hit class":"no change","caspase hit class":"no change","viability robust z-score":-0.14,"caspase robust z-score":0.1,"activity call":"inactive"}
{"target":"UGT8 (UDP glycosyltransferase 8)","viability hit class":"no change","caspase hit class":"no change","viability robust z-score":1.52,"caspase robust z-score":0.11,"activity call":"inactive"}
{"target":"ACSBG2 (acyl-CoA synthetase bubblegum family member 2)","viability hit class":"no change","caspase hit class":"no change","viability robust z-score":0.94,"caspase robust z-score":0,"activity call":"inactive"}
{"target":"DQX1 (DEAQ-box RNA dependent ATPase 1)","viability hit class":"no change","caspase hit class":"no change","viability robust z-score":0.42,"caspase robust z-score":0.29,"activity call":"inactive"}
{"target":"ENTPD6 (ectonucleoside triphosphate diphosphohydrolase 6)","viability hit class":"no change","caspase hit class":"no change","viability robust z-score":0.66,"caspase robust z-score":-0.78,"activity call":"inactive"}
